Laboratory results reported in article PMC6582607.

Amino acid sequences for entries named in this document (tags omitted). Residues count along the entry.
UniProt P80188, 21-198: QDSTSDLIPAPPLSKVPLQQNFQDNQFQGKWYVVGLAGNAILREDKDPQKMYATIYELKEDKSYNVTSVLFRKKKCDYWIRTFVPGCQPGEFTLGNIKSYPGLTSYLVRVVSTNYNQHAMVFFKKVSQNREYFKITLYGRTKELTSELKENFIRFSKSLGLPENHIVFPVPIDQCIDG

Molecular target: NGAL (neutrophil gelatinase-associated lipocalin) (UniProt P80188)
Experiment: magnetic bead pull-down, qPCR
Conditions: 200 nM aptamer; room temperature, 1 h, NGAL-coated magnetic beads (about 0.20 ug NGAL per uL beads); single-stranded DNA

Row | Sequence | binding result
1 | AGCAGCACAGAGGTCAGATGCAACGGGTATAACCAGATGATTTGGCGCCACGTAACCTATGCGTGCTACCGTGAA [NA21] | binds more weakly
2 | AGCAGCACAGAGGTCAGATGTGCTGGAATCAACACGATCGCATCCCGGATGGGCTCCTATGCGTGCTACCGTGAA [NA10] | binds more weakly

Weaker means in comparison with the reference protein, sequence or condition of that experiment.
